Values joined by “and” are separate entries in the source; they are usually repeats but may differ in a detail not shown here. Identical values can stand only once. The list shows a part of the results. The main result of the screen is listed elsewhere. These columns were measured beside it and carry no call. Most of these compounds were active or inconclusive in the main read-out, so they are no random draw. The note in brackets gives the kind of curve behind each potency; many fits are weak.
Assay: qHTS Assay to Find Inhibitors of Chronic Active B-Cell Receptor Signaling
Details: ABC-DLBCL IkBa-CBG/CBR reporter, luminescence ratio (green luciferase fused to IkBa over red control in TMD8 lymphoma cells), 4 h
Summary of the method: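 Compounds up to 46 uM were incubated four hours with TMD8 cells whose green CBG68 luciferase is fused to IkappaBalpha; red CBR luminescence normalised the signal, and concentration-effect curves were fitted to fusion, red and ratio data.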

[1] = measured here: CBR red luminescence, cell number
[2] = measured here: IkBa-CBG green luminescence

| Structure (SMILES) | AC50 [1] | AC50 [2] |
| --- | --- | --- |
| CC1CCCCN1Cc1c(O)ccc2c(=O)c(-c3ccc(Cl)cc3)coc12 (stereo unspecified) | 2 µM [rising, partial curve, poor fit] |  |
| COc1ccc(CC(NC(C)=O)C(=O)NC2CCN(c3c(Cc4ccccc4)c(C)nc4ncnn34)CC2)c(OC)c1 (stereo unspecified) | 11.2 µM [rising, partial curve] |  |
| COc1ccccc1-n1c(SCC(N)=O)nc2sc3c(c2c1=O)CCC3 | 5.62 µM [rising, full curve, poor fit] |  |
| CCCCC[C@@H]1C=C(C(=O)O)[C@H](c2cccc(C)c2)N1S(=O)(=O)c1ccc(C)cc1 | 3.66 µM [rising, partial curve, poor fit] |  |
| Cc1c(C(=O)c2ccccc2)c2ccccn2c1CCc1ccccn1 | 22.4 µM [falling, single point] |  |
| Cc1ccc(S(=O)(=O)/N=C(/NC(=S)Nc2cccc(C)c2)c2ccccc2)cc1 | 16.4 µM [falling, single point] |  |
| Cc1ccc(SCc2nc(-c3ccncc3)no2)cc1 | 20.6 µM [rising, partial curve] |  |
| COC(=O)c1c(C)[nH]c(C=O)c1-c1ccccc1 | 3.98 µM [rising, full curve] |  |
| CC(C)(C)CN1CCN(CC#Cc2ccccc2)CC1CCO (stereo unspecified) | 28.2 µM [falling, single point] |  |
| Cc1ccnc2nc(C(=O)Nc3nnc(-c4ccccc4)o3)nn12 | 20 µM [falling, single point] |  |
| Cn1nc(-c2ccccc2)c(N2CCCCC2)cc1=O | 3.55 µM [rising, partial curve, poor fit] |  |
| CCc1ccc(-n2c(=O)c3c(C)c(C(=O)N(C)C)sc3n(CC(=O)Nc3cc(Cl)ccc3C)c2=O)cc1 | 5.62 µM [falling, full curve, poor fit] |  |
| COc1cccc(CNC(=O)c2cccnc2Sc2ccc(Cl)cc2)c1 | 1.26 µM [rising, full curve, poor fit] |  |
| CCN1CCN(CCNC(=O)c2ccc(/C=C3/Sc4ccccc4N(Cc4cccc(C)c4)C3=O)cc2)CC1 | 10 µM [rising, partial curve, poor fit] |  |
| CCOc1cc(/C=C2\CN(C)C/C(=C\c3ccc(O)c(OCC)c3)C2=O)ccc1O | 35.5 µM [falling, single point] | 3.16 µM [falling, partial curve, poor fit] |
| O=C(O)CCSCCCN1C(=O)c2cccc3cccc(c23)C1=O | 1.41 µM [falling, full curve] |  |
| CC(C)N(C)S(=O)(=O)c1ccc(NC(=O)C2=COCCO2)cc1 | 16.4 µM [rising, single point] |  |
| O=C(CSc1nnc(C2CCCCC2)o1)N1CCCCC1 | 12.6 µM [rising, partial curve] |  |
| COc1ccc(CN2CCN(Cc3c[nH]c4ccccc34)CC2CCO)cc1C (stereo unspecified) | 17.8 µM [falling, partial curve, poor fit] |  |
| CC1Sc2ccc(S(=O)(=O)N3CCC(C(=O)Nc4cccc(Cl)c4)CC3)cc2NC1=O (stereo unspecified) | 14.1 µM [falling, single point] |  |
| O=C(CCN1C(=O)S/C(=C\c2ccc(Cl)cc2)C1=O)Nc1ccc(C(=O)O)cc1 | 2.82 µM [falling, single point] |  |

| Structure (SMILES) | AC50 [1] | AC50 [2] |
| --- | --- | --- |
| O=C(Cc1ccccc1)Nc1nc2ccccc2s1 | 14.6 µM [falling, single point] |  |
| CSc1ccccc1NC(=O)CN(C)CC(=O)Nc1ccccc1N1CCOCC1 | 0.562 µM [rising, full curve, poor fit] |  |
| NC(=O)CC(NC(=O)Cc1cccc2ccccc12)c1ccc(NCc2cc(F)ccc2F)c([N+](=O)[O-])c1 (stereo unspecified) | 0.794 µM [rising, full curve, poor fit] |  |
| CCOC(=O)c1sc(=NC(=O)c2ccc(OC(C)C)cc2)n(C)c1C | 35.5 µM [falling, single point] |  |
| O=C(/C=C/c1ccc(Cl)cc1Cl)NCCSc1ccccc1 | 1.46 µM [falling, partial curve, poor fit] |  |
| CN(C)c1ccc(-c2cc(O)c3ncccc3c2)cc1 | 1.64 µM [rising, full curve, poor fit] and 6.51 µM [rising, partial curve, poor fit] |  |
| OCc1cn(-c2ccccc2)nc1-c1ccc2c(c1)OCCO2 | 0.82 µM [rising, partial curve, poor fit] |  |
| Cc1ccc(C)c(NC(=S)NNC(=O)c2sccc2C)c1 | 22.4 µM [falling, single point] |  |
| COc1ccc(C)cc1Nc1c2c(nc3ccccc13)CCC2 | 12.6 µM [rising, partial curve] | 15.8 µM [falling, single point] |
| Cc1ccc(NC(=S)NCc2ccc(Cl)cc2)c(C)c1 | 35.5 µM [falling, single point] |  |
| CC(=O)Nc1ccc(S(=O)(=O)NCC(=O)NC(C)c2ccc(S(N)(=O)=O)cc2)cc1 (stereo unspecified) | 35.5 µM [rising, single point] |  |
| Nc1[nH]nc2nc(N3CCCC3)nc(-c3ccccc3)c12 | 35.5 µM [falling, single point] |  |
| Nc1c2nc(-c3ccccc3Cl)[nH]c(=O)c2nc(=O)n1-c1ccccc1 | 6.31 µM [falling, full curve, poor fit] |  |
| CC(=O)c1ccc(C(=O)Nc2nnc(-c3ccc(Cl)cc3)o2)cc1 | 10 µM [falling, partial curve] |  |
| CN(C)c1ccc(NC(=S)c2ccc3ccccc3n2)cc1 | 2.51 µM [rising, partial curve] |  |
| CSc1ccccc1NC(=O)Nc1cccc(Cl)c1 | 3.26 µM [falling, partial curve] |  |
| CC(C)c1ccc(NC(=O)c2cnn(-c3ccccc3)c2NC(=O)c2ccco2)cc1 | 7.08 µM [rising, partial curve, poor fit] |  |
| S=C(N/N=C1\C2CN3CCN(C2)CC1(c1ccccc1)C3)Nc1ccccc1 | 29.1 µM [rising, single point] |  |
| COc1ccc(O)c(/C=N/c2sc(C)c(C)c2C#N)c1 | 6.51 µM [falling, single point] |  |
| Cc1ccc(C(=O)c2coc3ccc(O)c(CN(C)C)c23)cc1 | 35.5 µM [falling, partial curve, poor fit] |  |
| CCN(CC)C(=S)NC(=O)c1ccc(F)cc1 |  | 35.5 µM [falling, partial curve, poor fit] |

| Structure (SMILES) | AC50 [1] | AC50 [2] |
| --- | --- | --- |
| CC(C)c1cc(-c2cc(-c3ccccc3)on2)nc(NC2CCCC2)n1 | 28.2 µM [rising, single point] |  |
| CCCCn1c(C)cc2cc(O)ccc21 | 23.1 µM [rising, partial curve] |  |
| O=C(c1ccco1)N1CCN(C(=O)c2ccc(-c3ccccc3Cl)o2)CC1 | 29.1 µM [falling, single point] |  |
| Cc1cccnc1Nc1nc(-c2ccccn2)cs1 | 14.6 µM [falling, partial curve, poor fit] | 18.4 µM [falling, single point] |
| CCCCn1c(N)c(N(C(=O)CSc2nnnn2-c2ccccc2)C2CCCC2)c(=O)[nH]c1=O | 16.4 µM [rising, single point] |  |
| Cc1cccc(Nc2ncnc3ccccc23)c1 | 7.31 µM [falling, partial curve] |  |
| C/C(=N/NC(=O)c1cc(-c2cccc([N+](=O)[O-])c2)n[nH]1)c1cccc(O)c1 | 7.94 µM [falling, partial curve, poor fit] |  |
| Cc1nc2nc(COc3ccccc3)[nH]n2c(=O)c1C | 5.8 µM [falling, full curve] |  |
| CCOc1ccccc1N(CC(=O)Nc1cc(OC)ccc1OC)S(=O)(=O)c1ccccc1 | 5.62 µM [falling, partial curve, poor fit] |  |
| COc1ccc(OC)c(-c2csc(NC(=O)COC(=O)C3CC3)n2)c1 | 6.51 µM [falling, single point] | 6.51 µM [rising, partial curve, poor fit] |
| COc1ccc(OCCCC(=O)Nc2nc(C)c(C(C)=O)s2)cc1 | 3.55 µM [falling, full curve] |  |
| CCN(C1CCCCC1)S(=O)(=O)c1cn(C)c(=O)n(C)c1=O | 4.61 µM [rising, full curve] |  |
| COc1ccc(Nc2cc(C(=O)NCCCN3CCOCC3)c3ccccc3n2)cc1OC | 4.61 µM [falling, partial curve] |  |
| COc1cccc(C2C(C#N)=C(N)N(N(C)C)C3=C2C(=O)CC(C)(C)C3)c1OC (stereo unspecified) | 6.31 µM [rising, single point] |  |
| CC1CCCCC1NC(=O)/C(C#N)=C/c1ccc(F)c(F)c1 (stereo unspecified) | 4.11 µM [falling, partial curve] |  |
| COc1ccccc1NC(=O)C1=C(C)Nc2nnnn2C1c1cc(Br)ccc1OC (stereo unspecified) | 20 µM [falling, partial curve, poor fit] |  |
| CCc1ncc(CN2CCCC(C(=O)Nc3ccc(-c4cscn4)cc3)C2)cn1 (stereo unspecified) | 6.31 µM [falling, partial curve] |  |
| Oc1ccc(C2C=C(c3ccc(F)cc3)Nc3ncnn32)cc1 (stereo unspecified) | 6.31 µM [falling, single point] |  |
| COc1ccc(NC(=O)C(c2ccccc2)N2Cc3ccccc3C2=O)cc1 (stereo unspecified) | 5.01 µM [rising, full curve, poor fit] |  |
| Cc1cc(C)c2[nH]c(=O)c(CN(Cc3ccc4c(c3)OCO4)Cc3nnnn3C3CCCC3)cc2c1 | 20.6 µM [rising, single point] |  |

From PubChem BioAssay AID493014 (National Center for Advancing Translational Sciences (NCATS), 2011)
